Source: paper PMC7190641
Results are given in words; binding and its absence hold for the method and conditions named. Binding can be weak; no strength is given. For some of these results: In cells and extracts the contact can be indirect. For some of these results: Where a sequence is shown, tags or fusion partners need not be part of it. Blank lines part the entries; values can stand above or below the molecule they belong to.

Chains of the proteins cited; added tags and fusions are not shown. Lines headed by an entry give the natural chain unless they say otherwise; changes in a name come on top.
UniProt G5EG87: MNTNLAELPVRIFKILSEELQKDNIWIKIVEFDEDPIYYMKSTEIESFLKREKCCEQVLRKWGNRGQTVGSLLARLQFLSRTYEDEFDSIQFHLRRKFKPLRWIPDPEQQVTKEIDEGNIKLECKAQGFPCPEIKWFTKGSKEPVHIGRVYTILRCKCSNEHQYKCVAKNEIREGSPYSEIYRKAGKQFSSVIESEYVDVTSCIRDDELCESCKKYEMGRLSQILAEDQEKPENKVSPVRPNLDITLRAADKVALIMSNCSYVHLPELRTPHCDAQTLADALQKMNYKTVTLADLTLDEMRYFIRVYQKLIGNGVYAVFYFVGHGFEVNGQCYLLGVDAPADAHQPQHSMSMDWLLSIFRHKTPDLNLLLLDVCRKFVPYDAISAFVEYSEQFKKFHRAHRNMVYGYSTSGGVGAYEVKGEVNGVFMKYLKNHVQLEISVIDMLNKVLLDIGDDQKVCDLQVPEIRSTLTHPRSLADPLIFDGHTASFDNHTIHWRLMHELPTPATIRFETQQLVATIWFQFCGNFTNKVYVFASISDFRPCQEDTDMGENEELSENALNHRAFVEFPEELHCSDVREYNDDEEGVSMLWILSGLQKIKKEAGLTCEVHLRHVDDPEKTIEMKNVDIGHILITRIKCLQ

Key:
[1] = target: T1, NFKI-1 N-terminus (1-374), two-hybrid bait (C. elegans) (UniProt G5EDE9); assay: two-hybrid; yeast AH109; prey in pGADT7, bait in pGBKT7; nutritional selection (ADE2), 10-fold serial dilutions; done by Panbionet
T1 sequence: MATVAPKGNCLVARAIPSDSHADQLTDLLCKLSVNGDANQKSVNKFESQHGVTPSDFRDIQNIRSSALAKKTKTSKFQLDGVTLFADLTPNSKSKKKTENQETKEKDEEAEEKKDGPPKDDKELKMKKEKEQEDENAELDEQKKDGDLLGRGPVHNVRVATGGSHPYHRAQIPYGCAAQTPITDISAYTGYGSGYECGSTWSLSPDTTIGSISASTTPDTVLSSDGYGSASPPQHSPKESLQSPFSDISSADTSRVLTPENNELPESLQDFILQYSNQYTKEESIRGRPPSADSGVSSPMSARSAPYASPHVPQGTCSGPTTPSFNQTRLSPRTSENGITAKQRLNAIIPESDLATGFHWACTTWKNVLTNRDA

[2] = target: T2, His10-tagged C. elegans NFKI-1-V5 (recombinant) (C. elegans) (UniProt G5EDE9); assay: co-IP; pairwise co-immunoprecipitation of His10-tagged, epitope-tagged C. elegans proteins recombinantly expressed in E. coli; both purified
T2 sequence: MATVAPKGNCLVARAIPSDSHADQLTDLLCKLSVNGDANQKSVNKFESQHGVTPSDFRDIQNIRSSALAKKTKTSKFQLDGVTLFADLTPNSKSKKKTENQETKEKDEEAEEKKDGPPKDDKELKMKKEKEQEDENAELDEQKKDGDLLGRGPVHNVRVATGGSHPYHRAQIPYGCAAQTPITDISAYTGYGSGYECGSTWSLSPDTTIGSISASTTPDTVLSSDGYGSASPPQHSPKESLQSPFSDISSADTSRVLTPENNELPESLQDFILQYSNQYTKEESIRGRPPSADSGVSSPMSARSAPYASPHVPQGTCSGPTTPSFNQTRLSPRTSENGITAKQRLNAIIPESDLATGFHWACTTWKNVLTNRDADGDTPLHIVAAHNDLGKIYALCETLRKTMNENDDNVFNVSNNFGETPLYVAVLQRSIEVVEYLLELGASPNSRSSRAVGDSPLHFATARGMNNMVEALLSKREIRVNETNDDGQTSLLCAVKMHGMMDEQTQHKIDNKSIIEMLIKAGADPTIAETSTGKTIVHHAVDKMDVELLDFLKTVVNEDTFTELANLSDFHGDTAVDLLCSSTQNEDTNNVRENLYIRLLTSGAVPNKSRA

[3] = target: MALT-1-HA (endogenous MALT-1 tagged with HA) (C. elegans); assay: co-IP; multiple knock-in C. elegans strain (npr-1 animals); lysate in lysis buffer B; MALT-1-HA precipitated with anti-HA agarose, 30 min at 4 °C; half of the lysate with IgG-agarose as control; Western blot
[4] = target: His10-tagged C. elegans MALT-1-HA (recombinant) (C. elegans) (UniProt G5EG87); assay: co-IP; pairwise co-immunoprecipitation of His10-tagged, epitope-tagged C. elegans proteins recombinantly expressed in E. coli; both purified

Molecule: MALT-1 Death Domain (1-81), two-hybrid prey (C. elegans) (domain or fragment)
binding [1]: binds

binding [2]: binds
Molecule: His10-tagged C. elegans MALT-1-HA (recombinant) (from UniProt G5EG87)

binding [3]: binds
B1: ACTL-1-FLAG (endogenous ACTL-1 tagged with a FLAG epitope) (protein, UniProt Q18008 1-360)
chain: MTKMKMDVTIELDLDGDDWEEVDVLSDKCVEDILEDVHIDDPILVSDVRITLPANIRIKNFKKEIRDLILANLDVPTTVSAGSWQIVSSFLRGIEYSEIGGRERNSKLSWKPFEDMHAQILVNALAYAQRVDILVKLKSYIDSNSYLKNVPEPMFAFADTDSMASTTTFSEYAEPVHSMNARKKILLLHYETTSKEKEDFKWFKCNLKNVLEKERKEGKDLEVFDVKVWEKDDRGNVFQELEKHYDLFPHIVVCFNKSYIEATKPNSKSKMPQFRKSISDKLNVEFHMNGNRNLRGRCVLMSEVEKVTDTYWAAVTNQYPFPGSFEPFVKRLLRDGKVKKQSHNNANDHHEDSMNYSITQ

binding [4]: binds
B2: His10-tagged C. elegans ACTL-1-FLAG (recombinant) (protein, UniProt Q18008 1-360)
chain: B1 chain

binding [3]: binds
B3: PIK-1-Myc (endogenous PIK-1 tagged with a Myc epitope) (protein, UniProt G5ECP4 1-485)
chain: MDDSLGVSEVVMIPFMKREVLQQICAILDTDNTWETIAPYMPGIELRDVEGCKRYSSYNQSPSELLLRIWSSKGYSTTHLYQLFAKTKLIRLMRMMRSQVHEKYHYLENKVTNSTSRVSKQMVQPPGSQSASRLKKTEIKESSPSPAAAAASQLSRSNTDDTLRVAIEGTLPVTYCELLEATNGFAVSNVIGKGGYGTVYKGELKGTGGIVAVKRLHSGNDTSQNGSRERLRQSLTELRTLARFRHDNILPIYAYSLEGSEPCLVYQFMSNGSLEDRLLCRKGSVPLTWIQRKEISIGAGRGLGFLHSFGKTPIIHGDIKTANILLDKHMEPKIGDFGLCRDGHVEAEAMEKHPLIASHIKGTLAYLAPEFITSKILTTKLDVYSFGIVLLEIASGQRAYSDSRETRGLVEYCQVNKELAAHRKIPVREIFIDRRAPPLVGDEEKSFLDALIEVGLAGANNDRKVRPTMSQIVEYLCKNSIPPVV

binding [3]: binds
B4: NFKI-1-V5 (endogenous NFKI-1 tagged with V5) (protein, UniProt G5EDE9 1-611)
chain: T2 sequence

binding [4]: binds
B5: His10-tagged C. elegans NFKI-1-V5 (recombinant) (protein, UniProt G5EDE9 1-611)
chain: T2 sequence
